From patent US20250170218A1, “STABLE PHARMACEUTICAL COMPOSITION OF RECEPTOR AGONIST, AND PREPARATION METHOD AND APPLICATION THEREOF” (JIANGSU HANSOH PHARMACEUTICAL GROUP CO., LTD., priority 2022, published 2025)

Protein sequences, listed by entry. Tags and fused reporters are not part of them. Residues count along the entry.
UniProt P43220, 24-463, species assumed: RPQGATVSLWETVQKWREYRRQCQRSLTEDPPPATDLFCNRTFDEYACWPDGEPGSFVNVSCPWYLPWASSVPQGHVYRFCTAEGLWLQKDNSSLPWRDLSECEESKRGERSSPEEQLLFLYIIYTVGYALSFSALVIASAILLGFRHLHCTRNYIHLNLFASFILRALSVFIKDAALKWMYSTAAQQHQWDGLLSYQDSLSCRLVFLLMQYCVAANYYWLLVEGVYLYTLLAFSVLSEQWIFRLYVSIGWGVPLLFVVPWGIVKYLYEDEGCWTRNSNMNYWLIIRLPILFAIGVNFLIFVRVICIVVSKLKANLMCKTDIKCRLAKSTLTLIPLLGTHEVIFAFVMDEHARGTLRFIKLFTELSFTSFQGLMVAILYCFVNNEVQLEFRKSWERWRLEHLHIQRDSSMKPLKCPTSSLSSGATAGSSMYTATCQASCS
UniProt P48546, 22-466: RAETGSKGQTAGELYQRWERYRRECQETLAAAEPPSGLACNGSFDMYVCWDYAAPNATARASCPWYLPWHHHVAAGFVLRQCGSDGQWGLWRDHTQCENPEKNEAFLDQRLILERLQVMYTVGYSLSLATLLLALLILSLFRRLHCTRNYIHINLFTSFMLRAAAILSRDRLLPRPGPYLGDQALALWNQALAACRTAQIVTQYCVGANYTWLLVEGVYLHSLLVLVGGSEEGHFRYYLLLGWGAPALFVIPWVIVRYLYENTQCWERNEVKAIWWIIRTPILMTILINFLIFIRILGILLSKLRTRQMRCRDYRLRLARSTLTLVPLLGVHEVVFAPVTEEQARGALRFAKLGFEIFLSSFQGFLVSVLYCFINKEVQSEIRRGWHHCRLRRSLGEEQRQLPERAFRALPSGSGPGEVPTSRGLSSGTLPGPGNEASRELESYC

Experiments:
[1] = target: GLP-1 receptor (Homo sapiens, UniProt P43220)
[2] = target: GIP receptor (Homo sapiens, UniProt P48546)

In the case of `CC[C@H](C)[C@H](NC(=O)[C@H](CCCCN)NC(=O)[C@H](CCC(=O)O)NC(=O)[C@H](CC(C)C)NC(=O)[C@H](Cc1ccc(O)cc1)NC(=O)[C@@H](NC(=O)[C@H](CO)NC(=O)[C@H](Cc1ccc(O)cc1)NC(=O)[C@H](CC(=O)O)NC(=O)[C@H](CO)NC(=O)[C@@H](NC(=O)[C@H](Cc1ccccc1)NC(=O)[C@@H](NC(=O)CNC(=O)[C@H](CCC(=O)O)NC(=O)C(C)(C)NC(=O)[C@@H](N)Cc1ccc(O)cc1)[C@@H](C)O)[C@@H](C)O)[C@@H](C)CC)C(=O)N[C@@H](C)C(=O)N[C@@H](C)C(=O)N[C@@H](CCC(N)=O)C(=O)N[C@@H](CCC(=O)O)C(=O)N[C@@H](Cc1ccccc1)C(=O)N[C@H](C(=O)N[C@@H](CC(N)=O)C(=O)N[C@@H](Cc1c[nH]c2ccccc12)C(=O)N[C@@H](CC(C)C)C(=O)N[C@@H](CC(C)C)C(=O)N[C@@H](C)C(=O)NCC(=O)NCC(=O)N1CCCC1C(=O)N[C@@H](CO)C(=O)N[C@@H](CO)C(=O)NCC(=O)N[C@@H](C)C(=O)N1CCC[C@H]1C(=O)N1CCCC1C(=O)N1CCC[C@H]1C(=O)N[C@@H](CO)C(=O)N[C@@H](CCCCNC(=O)COCCOCCNC(=O)COCCOCCNC(=O)CC[C@H](NC(=O)CCCCCCCCCCCCCCCCCCC(=O)O)C(=O)O)C(N)=O)C(C)C` (some centres unmarked) [Active ingredient], the “agonistic activity on the GLP-1 receptor” value [1] is reported as “strong agonistic activity” and the “agonistic activity on the GIP receptor” value [2] is reported as “strong agonistic activity”.
